From patent publication US20100235931A1, “Novel Neurological Function of mPKCI” (priority 2006, published 2010)
At least one compound was matched to its structure with a doubt left.

Test system: mPKCI WT and KO mice
Experiment: Locomotor activity measurement (open field, ambulation and stereotypy)
Assay type: in vivo
Settings: bicuculline 1 mg/kg i.p., 120 min after treatment, FIG. 2
Description: The generation of PKCI^−/− mice was described previously (Su et al, 2003, supra). PKCI^−/− mice and their wild type littermates were derived by breeding heterozygous […] mice for altered PKCI allele (Hint1) and genotype of the animals was confirmed by PCR of DNA from tail biopsies. Animals were housed 4-6/cage, maintained under standard laboratory condition with food and water provided ad libitum. The male animals were tested between 10-20 weeks of age. Wild type and PKCI^−/− groups were matched for age in all experiments. All studies were conducted with an approved protocol from University of Maryland, School of Pharmacy IACUC.
Mice locomotor activity was monitored during an open field test using “Activity Monitor” chambers (27×27×20.3 cm) associated with the Activity Monitor software (Med Associates Inc St Albans Vt.). Room temperature was set at 23° C.+/−2° C. Horizontal spontaneous locomotion activity, scored as ambulatory counts and stereotypic movements (Sanberg P. R. et al 1987, Pharmacol. Biochem. Behav. 27, 569-72), was recorded during the first 30 min of acclimatization to the novel environment and during 120 min following the treatment. The animals were acclimated to a 12 h cycle light/dark phase with the light on at 7:00 am before the experiments. Tests were performed during the light phase of the cycle between 8:00 am to 3:00 pm. […]

CN1CCc2cc3c(cc2[C@H]1[C@@H]1OC(=O)c2c1ccc1c2OCO1)OCO3 [bicuculline]
effect on locomotor activity: did not promote increase in locomotor activity
